Measured values published in PubChem BioAssay AID493014 (National Center for Advancing Translational Sciences (NCATS), 2011).
This is one part of the list. These are further read-outs of the screen, such as a control signal, another cell line or another target. No call is given for them. Compounds called inactive in the main read-out are mostly missing here. Potencies come from curve fits of mixed quality, noted in brackets.

Assay: qHTS Assay to Find Inhibitors of Chronic Active B-Cell Receptor Signaling
Settings: ABC-DLBCL IkBa-CBG/CBR reporter, luminescence ratio (green luciferase fused to IkBa over red control in TMD8 lymphoma cells), 4 h
Outline: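 TMD8 human ABC-DLBCL cells with doxycycline-inducible IκBα–green luciferase fusion and unfused red luciferase, in 0.5% FBS medium; compounds up to 46 uM, 4 h at 37C. Green/red luminescence ratio, filter-overlap corrected, fitted to concentration-response curves.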

[1] = measured here: CBR red luminescence, cell number
[2] = measured here: IkBa-CBG green luminescence

Row | SMILES | AC50 [1] | AC50 [2]
1 | COC(=O)[C@H](CC(C)C)NC(=O)NCCC1=CCCCC1 | 8.91 µM [rising, partial curve, poor fit] | 
2 | O=c1oc2ccccc2c(NC2CCCCC2)c1NS(=O)(=O)c1ccc(F)cc1 | 7.94 µM [falling, partial curve, poor fit] | 
3 | Oc1cccc(/C=N/Nc2ccc(Cl)nn2)c1 | 14.1 µM [falling, partial curve] | 
4 | Nc1nc(NC(=O)c2ccccc2)nn1-c1ccccc1 | 2.31 µM [falling, full curve] | 
5 | O=C(O)c1ccc(CSc2nnc(SCc3ccccc3)s2)cc1 | 20 µM [rising, single point] | 
6 | CCCCCCCCCCCC(=O)NC(C(=O)O)C(O)c1ccccc1 (stereo unspecified) | 35.5 µM [falling, single point] | 
7 | COc1cc(OC)c2c(-c3cccc(-c4ccc(NC(C)=O)cc4)c3)cc(=O)oc2c1 | 1.84 µM [rising, partial curve, poor fit] | 2.91 µM [falling, full curve]
8 | Cc1ccc(CNC(=O)CNC(=O)c2ccco2)cc1 | 35.5 µM [rising, single point] | 
9 | CCOC(=O)C1CCN(C(=O)CSc2ccc(Br)cc2)CC1 | 11.2 µM [falling, partial curve] | 
10 | CC(C)CCOc1ccc(C(=O)N2CCN(c3ncccn3)CC2)cc1 | 0.501 µM [rising, full curve, poor fit] | 
11 | COc1cccc(Nc2nc(NCC3CCCO3)c3ccccc3n2)c1 (stereo unspecified) | 18.4 µM [falling, partial curve, poor fit] | 
12 | CCOC(=O)c1[nH]c2c(c1-c1ccccc1)C(=O)CC(c1ccccc1)C2 (stereo unspecified) | 0.651 µM [rising, full curve] | 
13 | CCCCC(=O)c1ccc(O)cc1 | 13 µM [rising, partial curve, poor fit] | 
14 | CC(=O)NC(Cc1ccc(C(C)C)cc1)C(=O)NC1CCN(C(=O)c2cccc(C)c2)CC1 (stereo unspecified) | 0.891 µM [falling, full curve, poor fit] | 
15 | CCOc1cc(N2CCOCC2)c(OCC)cc1NC(=O)c1c(-c2ccccc2)noc1C | 4.11 µM [rising, full curve] | 
16 | O=C(NCCNc1ccc([N+](=O)[O-])cc1)c1ccccc1Br | 35.5 µM [falling, single point] | 
17 | O=C1/C(=C/c2ccc(F)cc2)SC(=S)N1NS(=O)(=O)c1ccccc1 | 22.4 µM [falling, single point] | 
18 | COc1ccccc1NC(=O)C1=C(C)NC(SCC(=O)c2ccccc2)=C(C#N)C1c1ccco1 (stereo unspecified) | 1.03 µM [falling, full curve] | 
19 | COc1cccc(N2CCN(C(=O)c3ccc(CS(=O)c4ccccc4Cl)o3)CC2)c1 (stereo unspecified) | 12.6 µM [rising, partial curve] | 5.01 µM [falling, full curve]
20 | CCC(c1nnnn1Cc1ccco1)N(CCc1ccccc1)Cc1cc2cccc(C)c2[nH]c1=O (stereo unspecified) | 25.9 µM [falling, single point] | 
21 | COc1ccccc1N1CCN(S(=O)(=O)c2ccccc2)CC1 | 18.4 µM [rising, partial curve, poor fit] | 18.4 µM [falling, single point]

By substructure, those above with a carbonyl joined to an NH by a bond outside any ring
Row | SMILES | AC50 [1] | AC50 [2]
1 | COC(=O)[C@H](CC(C)C)NC(=O)NCCC1=CCCCC1 | 8.91 µM [rising, partial curve, poor fit] | 
4 | Nc1nc(NC(=O)c2ccccc2)nn1-c1ccccc1 | 2.31 µM [falling, full curve] | 
6 | CCCCCCCCCCCC(=O)NC(C(=O)O)C(O)c1ccccc1 (stereo unspecified) | 35.5 µM [falling, single point] | 
7 | COc1cc(OC)c2c(-c3cccc(-c4ccc(NC(C)=O)cc4)c3)cc(=O)oc2c1 | 1.84 µM [rising, partial curve, poor fit] | 2.91 µM [falling, full curve]
8 | Cc1ccc(CNC(=O)CNC(=O)c2ccco2)cc1 | 35.5 µM [rising, single point] | 
14 | CC(=O)NC(Cc1ccc(C(C)C)cc1)C(=O)NC1CCN(C(=O)c2cccc(C)c2)CC1 (stereo unspecified) | 0.891 µM [falling, full curve, poor fit] | 
15 | CCOc1cc(N2CCOCC2)c(OCC)cc1NC(=O)c1c(-c2ccccc2)noc1C | 4.11 µM [rising, full curve] | 
16 | O=C(NCCNc1ccc([N+](=O)[O-])cc1)c1ccccc1Br | 35.5 µM [falling, single point] | 
18 | COc1ccccc1NC(=O)C1=C(C)NC(SCC(=O)c2ccccc2)=C(C#N)C1c1ccco1 (stereo unspecified) | 1.03 µM [falling, full curve] | 

A second format for some results above.
Row	SMILES	AC50 [1]	AC50 [2]
3	Oc1cccc(/C=N/Nc2ccc(Cl)nn2)c1	14.1 µM [falling, partial curve]	
11	COc1cccc(Nc2nc(NCC3CCCO3)c3ccccc3n2)c1 (stereo unspecified)	18.4 µM [falling, partial curve, poor fit]	

(listing goes on)

Row | SMILES | AC50 [1] | AC50 [2]
22 | CCOc1ccc(NC(=O)c2ccc(NC(=O)c3ccc(CN4CCOCC4)cc3)cc2)cc1 | 2.51 µM [falling, partial curve, poor fit] | 
23 | CCCCC(=O)NC(Nc1cc(C)ccn1)(C(=O)OCC)C(F)(F)F (stereo unspecified) | 6.31 µM [rising, partial curve, poor fit] | 
24 | N=c1n(CCN2CCCCC2)c2ccccc2n1CC(=O)c1cccc([N+](=O)[O-])c1 | 11.2 µM [rising, partial curve] | 
25 | c1cncc(-c2nc3ccccc3[nH]2)c1 |  | 35.5 µM [rising, partial curve, poor fit]
26 | Nc1c2c(nc3ccccc13)CCCC2=O | 14.1 µM [falling, partial curve, poor fit] | 
27 | COc1cc2sc(-c3ccccc3OC)c(-c3ccc(OCCN4CCOCC4)cc3)c2cc1OC |  | 14.6 µM [falling, partial curve]
28 | Cc1nc(CSc2nnc(N)s2)cs1 | 17.8 µM [rising, single point] | 
29 | CCOC(=O)c1ccc(NC(=O)C(CC)CC)cc1 | 6.31 µM [rising, single point] | 
30 | CC(=O)COc1ccc2c3c(c(=O)oc2c1)CCCC3 | 7.08 µM [rising, full curve, poor fit] | 
31 | CCCCCOC(=O)c1cc(=O)[nH]c2ccccc12 | 0.0891 µM [rising, full curve, poor fit] | 
32 | Cn1cc(CN2CCC(n3nccc3NC(=O)c3ccccc3Cl)CC2)c2ccccc21 | 12.6 µM [falling, single point] | 
33 | N#CC1(C#N)[C@@H](C(=O)C23CC4CC(CC(C4)C2)C3)C12CCOCC2 | 32.6 µM [rising, partial curve, poor fit] | 
34 | COC(=O)C1=C(C(=O)OC)SC2(S1)C(C(=O)OC)=C(C(=O)OC)SC1=C2c2cccc(C)c2NC1(C)C | 2.59 µM [rising, full curve, poor fit] | 
35 | Clc1nc(-c2ccccn2)nc2scc(-c3ccccc3)c12 | 20.6 µM [falling, partial curve, poor fit] | 
36 | Oc1ccccc1-c1nnc(COc2ccc(Cl)cc2Cl)o1 | 16.4 µM [falling, single point] | 
37 | CC1CCCC(C)N1C(=O)Nc1cccc(Cl)c1 (stereo unspecified) | 4.61 µM [rising, single point] | 
38 | CCOc1ccc(Nc2nnc(SCc3nc4ccccc4c(=O)[nH]3)s2)cc1 | 0.178 µM [rising, full curve, poor fit] | 
39 | CCOc1ccccc1NC(=O)CN(C)S(=O)(=O)c1ccc2[nH]c(=O)oc2c1 | 0.794 µM [rising, full curve, poor fit] | 
40 | COc1cccc(C(=O)NCCSCc2ccccc2Cl)c1 | 4.47 µM [falling, partial curve, poor fit] | 
41 | CN(C)/C=N/C(=S)Nc1ccccc1F | 0.282 µM [falling, full curve] | 
42 | O=C(NCc1cccs1)C1CCC(CNS(=O)(=O)c2ccc(Br)s2)CC1 (stereo unspecified) | 16.4 µM [rising, single point] | 

Row | SMILES | AC50 [1] | AC50 [2]
43 | c1ccc(-c2ccccc2-c2nc(-c3ccncc3)no2)cc1 | 6.51 µM [rising, partial curve, poor fit] | 
44 | O=c1c2ccccc2nc(SCCN2CCCCC2)n1CCc1ccccc1 | 22.4 µM [falling, single point] | 
45 | COc1ccccc1NC(=O)N1CCOCC1 | 11.2 µM [falling, partial curve] | 
46 | Cc1nc2c3cc(F)ccc3n(Cc3ccccc3)c2s1 | 23.1 µM [rising, partial curve] | 20.6 µM [falling, single point]
47 | CCCCCC(=O)N/N=C(\C)c1ccccn1 | 4.11 µM [rising, full curve, poor fit] | 
48 | O=C(NN1C(=O)c2ccccc2NC1c1ccccc1OCc1ccccc1)c1ccncc1 (stereo unspecified) | 0.731 µM [rising, partial curve, poor fit] | 
49 | COc1cc(C(=O)NCCc2ccc3c(c2)OCCO3)ccc1OCC(=O)N1CCOCC1 | 35.5 µM [falling, partial curve, poor fit] | 
50 | CC(=O)N1CCc2c(sc(NC(=O)c3ccc4c(c3)OCCO4)c2C#N)C1 | 1.64 µM [rising, full curve, poor fit] | 
51 | CC(=O)N/C(=C\c1ccccc1)C(=O)OCC(=O)Nc1cc(S(=O)(=O)N(C)C)ccc1Cl | 7.31 µM [rising, partial curve, poor fit] | 
52 | COc1cc2nc(CN3CCN(S(=O)(=O)c4ccccc4C(F)(F)F)CC3)[nH]c(=O)c2cc1OC | 1.64 µM [rising, partial curve, poor fit] | 
53 | O=C(Cc1ccccc1)NC(=S)Nc1ccc2oc(-c3ccccc3F)nc2c1 | 0.794 µM [rising, full curve, poor fit] | 
54 | CCOC(=O)C1=NNC(C(=O)c2ccc(C)cc2)C1c1ccc(OC)cc1 (stereo unspecified) | 2.59 µM [falling, full curve, poor fit] | 
55 | O=C(O)COc1ccccc1/C=N/NC(=O)CSc1nnc(-c2ccc(Cl)cc2)n1C1CCCCC1 | 12.6 µM [falling, partial curve] | 
56 | O=C(N/N=C/c1ccc([N+](=O)[O-])o1)c1cc2c(ccc3ccccc32)o1 | 8.91 µM [falling, partial curve, poor fit] | 
57 | CCCCOc1ccc(OC(=O)c2sc3ncn(Cc4cccc(F)c4)c(=O)c3c2C)cc1 | 11.2 µM [rising, partial curve] | 
58 | N#Cc1ccccc1Oc1ccc(S(=O)(=O)N2CCCCC2)cn1 | 32.6 µM [falling, partial curve, poor fit] | 
59 | Cc1ccc(C)c(-c2nnc(NC(=O)c3ccc([N+](=O)[O-])o3)o2)c1 | 18.4 µM [falling, partial curve, poor fit] | 
60 | Cc1nnc2sc(SCc3ccccc3)nn2c1=O | 11.6 µM [falling, partial curve, poor fit] | 
61 | COc1ccccc1NC(=S)NNC(=S)Nc1ccc(OC(F)F)cc1 | 10.3 µM [falling, partial curve] | 
62 | CCCCCNC(=O)c1c[nH]c2ccc(S(=O)(=O)N3CCC(C)CC3)cc2c1=O | 20 µM [rising, single point] | 
